According to publication PMC9099420:
These are yes or no findings as the source states them, for the method shown. In cells and extracts the contact can be indirect. Some results given as binding are weak or reduced against the parent protein; the word gives no strength.

Sequences of proteins named here, by UniProt entry; tags and fusion partners are left off.
UniProt Q7JJ13: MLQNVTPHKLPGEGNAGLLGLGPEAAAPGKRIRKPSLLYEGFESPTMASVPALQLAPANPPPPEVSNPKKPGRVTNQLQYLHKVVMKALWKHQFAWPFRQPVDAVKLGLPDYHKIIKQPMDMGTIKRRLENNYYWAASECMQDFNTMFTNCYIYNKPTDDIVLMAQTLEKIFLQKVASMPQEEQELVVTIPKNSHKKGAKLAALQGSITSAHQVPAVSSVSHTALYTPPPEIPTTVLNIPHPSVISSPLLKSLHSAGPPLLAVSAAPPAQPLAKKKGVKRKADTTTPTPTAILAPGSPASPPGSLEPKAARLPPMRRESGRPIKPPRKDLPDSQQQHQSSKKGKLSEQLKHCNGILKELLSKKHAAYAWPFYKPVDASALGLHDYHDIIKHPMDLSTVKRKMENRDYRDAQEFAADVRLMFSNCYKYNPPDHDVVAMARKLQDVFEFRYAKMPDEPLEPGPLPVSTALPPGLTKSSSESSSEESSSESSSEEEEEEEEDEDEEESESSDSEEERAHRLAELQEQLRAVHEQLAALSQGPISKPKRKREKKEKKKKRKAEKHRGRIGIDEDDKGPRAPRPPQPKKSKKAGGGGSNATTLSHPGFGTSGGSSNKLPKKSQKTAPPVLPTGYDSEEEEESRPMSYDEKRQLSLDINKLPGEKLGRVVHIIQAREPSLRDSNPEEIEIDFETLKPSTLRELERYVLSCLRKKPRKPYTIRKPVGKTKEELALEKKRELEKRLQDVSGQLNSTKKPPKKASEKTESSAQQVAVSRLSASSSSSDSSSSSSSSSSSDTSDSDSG

Target: T1, CTCF (mouse (endogenous in mouse ESCs)) (UniProt Q61164)
T1 sequence: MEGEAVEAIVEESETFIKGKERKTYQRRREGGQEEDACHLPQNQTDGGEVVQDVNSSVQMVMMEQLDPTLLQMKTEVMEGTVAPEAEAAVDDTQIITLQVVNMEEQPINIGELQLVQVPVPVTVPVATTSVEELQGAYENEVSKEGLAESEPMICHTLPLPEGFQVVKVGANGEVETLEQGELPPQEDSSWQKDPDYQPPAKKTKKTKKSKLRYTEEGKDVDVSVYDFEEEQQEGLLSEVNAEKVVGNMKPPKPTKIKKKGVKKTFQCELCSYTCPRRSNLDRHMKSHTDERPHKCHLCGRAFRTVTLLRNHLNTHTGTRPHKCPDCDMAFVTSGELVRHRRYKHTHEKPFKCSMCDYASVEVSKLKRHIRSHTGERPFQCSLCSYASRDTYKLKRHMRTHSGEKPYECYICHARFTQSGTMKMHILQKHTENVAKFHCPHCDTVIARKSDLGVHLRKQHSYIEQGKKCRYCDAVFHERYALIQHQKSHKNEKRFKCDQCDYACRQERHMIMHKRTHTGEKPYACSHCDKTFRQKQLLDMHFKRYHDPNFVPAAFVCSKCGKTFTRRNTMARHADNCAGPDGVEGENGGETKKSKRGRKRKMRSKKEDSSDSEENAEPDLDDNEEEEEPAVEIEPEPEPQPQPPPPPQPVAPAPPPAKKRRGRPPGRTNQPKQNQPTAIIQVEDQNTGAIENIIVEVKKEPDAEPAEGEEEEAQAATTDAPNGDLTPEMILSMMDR
Experiment: co-IP; endogenous proteins from mouse ESC nuclear lysate, untreated (UT) or Benzonase treated (2 h, 4°C); 0.3 M NaCl co-IP buffer (25 mM HEPES, 1 mM MgCl2, 0.2 mM EDTA, 0.5% NP-40); IP with IgG, BRD2 or CTCF antibodies on Protein G magnetic beads, western blot

- binding: binds
Substance: BRD2 (from UniProt Q7JJ13 1-798)
